Measured values published in paper doi:10.1101/572156.
Where a chain is given by its changes, count along the chain named. Results are given in words; binding and its absence hold for the method and conditions named. Binding seen in cells or lysates may run through a third protein. These calls come from enrichment with a bait or labelling near it, and not all partners need be listed. Where a sequence is shown, tags or fusion partners need not be part of it. One block for each binder: values may come before it.

Legend:
Assay in all cases: affinity purification with mass spectrometry
[1] = target: T1, FLAG-tagged DND1 wild-type (full-length human Dead End, 1-353) (human) (UniProt Q8IYX4)
T1 sequence: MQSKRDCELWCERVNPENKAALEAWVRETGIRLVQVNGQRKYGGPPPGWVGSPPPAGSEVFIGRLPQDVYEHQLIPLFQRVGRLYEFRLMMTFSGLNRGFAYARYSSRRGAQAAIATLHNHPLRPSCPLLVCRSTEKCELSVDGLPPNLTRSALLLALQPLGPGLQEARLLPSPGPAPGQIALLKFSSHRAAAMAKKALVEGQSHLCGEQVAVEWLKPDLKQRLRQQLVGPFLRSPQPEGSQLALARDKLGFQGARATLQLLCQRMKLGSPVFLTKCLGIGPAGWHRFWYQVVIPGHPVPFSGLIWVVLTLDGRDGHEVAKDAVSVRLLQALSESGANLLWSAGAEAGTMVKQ

[2] = target: T2, FLAG-tagged DND1 1-235 dsRBD truncation mutant (human) (UniProt Q8IYX4)
T2 sequence: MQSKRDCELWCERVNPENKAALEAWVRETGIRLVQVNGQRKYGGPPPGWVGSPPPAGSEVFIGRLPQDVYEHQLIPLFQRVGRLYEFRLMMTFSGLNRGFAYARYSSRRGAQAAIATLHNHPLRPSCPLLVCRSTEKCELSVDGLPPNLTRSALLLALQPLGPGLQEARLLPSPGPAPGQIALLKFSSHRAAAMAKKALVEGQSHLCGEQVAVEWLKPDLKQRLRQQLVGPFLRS

[3] = target: T3, FLAG-tagged DND1 R98A (full-length, RRM1 RNP1 RNA binding mutant) (human) (UniProt Q8IYX4)
T3 sequence: T1 sequence with R98A

- binding [1]: binds
- binding [2]: binds
B1: MEX3A (protein, UniProt A1L020 1-520)
chain: MPSLVVSGIMERNGGFGELGCFGGSAKDRGLLEDERALQLALDQLCLLGLGEPPAPTAGEDGGGGGGGAPAQPAAPPQPAPPPPPAAPPAAPTAAPAAQTPQPPTAPKGASDAKLCALYKEAELRLKGSSNTTECVPVPTSEHVAEIVGRQGCKIKALRAKTNTYIKTPVRGEEPVFMVTGRREDVATARREIISAAEHFSMIRASRNKSGAAFGVAPALPGQVTIRVRVPYRVVGLVVGPKGATIKRIQQQTNTYIITPSRDRDPVFEITGAPGNVERAREEIETHIAVRTGKILEYNNENDFLAGSPDAAIDSRYSDAWRVHQPGCKPLSTFRQNSLGCIGECGVDSGFEAPRLGEQGGDFGYGGYLFPGYGVGKQDVYYGVAETSPPLWAGQENATPTSVLFSSASSSSSSSAKARAGPPGAHRSPATSAGPELAGLPRRPPGEPLQGFSKLGGGGLRSPGGGRDCMVCFESEVTAALVPCGHNLFCMECAVRICERTDPECPVCHITATQAIRIFS

- binding [1]: binds
- binding [2]: binds
B3: TRAP1 (protein, UniProt Q12931 60-704)
chain: STQTAEDKEEPLHSIISSTESVQGSTSKHEFQAETKKLLDIVARSLYSEKEVFIRELISNASDALEKLRHKLVSDGQALPEMEIHLQTNAEKGTITIQDTGIGMTQEELVSNLGTIARSGSKAFLDALQNQAEASSKIIGQFGVGFYSAFMVADRVEVYSRSAAPGSLGYQWLSDGSGVFEIAEASGVRTGTKIIIHLKSDCKEFSSEARVRDVVTKYSNFVSFPLYLNGRRMNTLQAIWMMDPKDVREWQHEEFYRYVAQAHDKPRYTLHYKTDAPLNIRSIFYVPDMKPSMFDVSRELGSSVALYSRKVLIQTKATDILPKWLRFIRGVVDSEDIPLNLSRELLQESALIRKLRDVLQQRLIKFFIDQSKKDAEKYAKFFEDYGLFMREGIVTATEQEVKEDIAKLLRYESSALPSGQLTSLSEYASRMRAGTRNIYYLCAPNRHLAEHSPYYEAMKKKDTEVLFCFEQFDELTLLHLREFDKKKLISVETDIVVDHYKEEKFEDRSPAAECLSEKETEELMAWMRNVLGSRVTNVKVTLRLDTHPAMVTVLEMGAARHFLRMQQLAKTQEERAQLLQPTLEINPRHALIKKLNQLRASEPGLAQLLVDQIYENAMIAAGLVDDPRAMVGRLNELLVKALERH

The next lines start with the binder.

B2: MATR3 (protein, UniProt P43243 1-847)
chain: MSKSFQQSSLSRDSQGHGRDLSAAGIGLLAAATQSLSMPASLGRMNQGTARLASLMNLGMSSSLNQQGAHSALSSASTSSHNLQSIFNIGSRGPLPLSSQHRGDADQASNILASFGLSARDLDELSRYPEDKITPENLPQILLQLKRRRTEEGPTLSYGRDGRSATREPPYRVPRDDWEEKRHFRRDSFDDRGPSLNPVLDYDHGSRSQESGYYDRMDYEDDRLRDGERCRDDSFFGETSHNYHKFDSEYERMGRGPGPLQERSLFEKKRGAPPSSNIEDFHGLLPKGYPHLCSICDLPVHSNKEWSQHINGASHSRRCQLLLEIYPEWNPDNDTGHTMGDPFMLQQSTNPAPGILGPPPPSFHLGGPAVGPRGNLGAGNGNLQGPRHMQKGRVETSRVVHIMDFQRGKNLRYQLLQLVEPFGVISNHLILNKINEAFIEMATTEDAQAAVDYYTTTPALVFGKPVRVHLSQKYKRIKKPEGKPDQKFDQKQELGRVIHLSNLPHSGYSDSAVLKLAEPYGKIKNYILMRMKSQAFIEMETREDAMAMVDHCLKKALWFQGRCVKVDLSEKYKKLVLRIPNRGIDLLKKDKSRKRSYSPDGKESPSDKKSKTDGSQKTESSTEGKEQEEKSGEDGEKDTKDDQTEQEPNMLLESEDELLVDEEEAAALLESGSSVGDETDLANLGDVASDGKKEPSDKAVKKDGSASAAAKKKLKKVDKIEELDQENEAALENGIKNEENTEPGAESSENADDPNKDTSENADGQSDENKDDYTIPDEYRIGPYQPNVPVGIDYVIPKTGFYCKLCSLFYTNEEVAKNTHCSSLPHYQKLKKFLNKLAEERRQKKET
- binding [1]: binds
- binding [2]: binds

B4: DHX30 (protein, UniProt Q7L2E3 1-1194)
chain: MFSLDSFRKDRAQHRQRQCKLPPPRLPPMCVNPTPGGTISRASRDLLKEFPQPKNLLNSVIGRALGISHAKDKLVYVHTNGPKKKKVTLHIKWPKSVEVEGYGSKKIDAERQAAAAACQLFKGWGLLGPRNELFDAAKYRVLADRFGSPADSWWRPEPTMPPTSWRQLNPESIRPGGPGGLSRSLGREEEEDEEEELEEGTIDVTDFLSMTQQDSHAPLRDSRGSSFEMTDDDSAIRALTQFPLPKNLLAKVIQIATSSSTAKNLMQFHTVGTKTKLSTLTLLWPCPMTFVAKGRRKAEAENKAAALACKKLKSLGLVDRNNEPLTHAMYNLASLRELGETQRRPCTIQVPEPILRKIETFLNHYPVESSWIAPELRLQSDDILPLGKDSGPLSDPITGKPYVPLLEAEEVRLSQSLLELWRRRGPVWQEAPQLPVDPHRDTILNAIEQHPVVVISGDTGCGKTTRIPQLLLERYVTEGRGARCNVIITQPRRISAVSVAQRVSHELGPSLRRNVGFQVRLESKPPSRGGALLFCTVGILLRKLQSNPSLEGVSHVIVDEVHERDVNTDFLLILLKGLQRLNPALRLVLMSATGDNERFSRYFGGCPVIKVPGFMYPVKEHYLEDILAKLGKHQYLHRHRHHESEDECALDLDLVTDLVLHIDARGEPGGILCFLPGWQEIKGVQQRLQEALGMHESKYLILPVHSNIPMMDQKAIFQQPPVGVRKIVLATNIAETSITINDIVHVVDSGLHKEERYDLKTKVSCLETVWVSRANVIQRRGRAGRCQSGFAYHLFPRSRLEKMVPFQVPEILRTPLENLVLQAKIHMPEKTAVEFLSKAVDSPNIKAVDEAVILLQEIGVLDQREYLTTLGQRLAHISTDPRLAKAIVLAAIFRCLHPLLVVVSCLTRDPFSSSLQNRAEVDKVKALLSHDSGSDHLAFVRAVAGWEEVLRWQDRSSRENYLEENLLYAPSLRFIHGLIKQFSENIYEAFLVGKPSDCTLASAQCNEYSEEEELVKGVLMAGLYPNLIQVRQGKVTRQGKFKPNSVTYRTKSGNILLHKSTINREATRLRSRWLTYFMAVKSNGSVFVRDSSQVHPLAVLLLTDGDVHIRDDGRRATISLSDSDLLRLEGDSRTVRLLKELRRALGRMVERSLRSELAALPPSVQEEHGQLLALLAELLRGPCGSFDVRKTADD
- binding [3]: binds
- binding [1]: binds
